We go through three sequences from US20140296501.

The target in the data set is EGFR (ERBB1) (UniProt P00533). Briefly: binding assay. Particulars: single-stranded DNA.

Regarding “ATCGAGGTTGTGGGTCGGATTGTTGGATTCTTTAAGTTGG [EGFR aptamer SEQ ID NO: 6 (40-mer selected region)]”, the binding result (N = BndU [n positions 2,8,9,11,15,20,21,23,24,28,29,31,32,33,37,38 = modified dU], 40-mer selected region retains binding affinity, variant of EGFR aptamer SEQ ID NO: 4) is “binds”.

Take “ATCGAGGTTGTGGGTCGGATTGTTGGATTCTTTAAGTTGGGAACACCAACCGAGAACG [EGFR aptamer SEQ ID NO: 3 (same as SEQ ID NO: 1)]”: under “N = BndU [n positions 2,8,9,11,15,20,21,23,24,28,29,31,32,33,37,38 = modified dU], binds only EGFR not bound by cetuximab or panitumumab, variant of EGFR aptamer SEQ ID NO: 4”, the binding result is on record as “binds”.

In the case of “GAGTTGTATGGGGTCGGATTGTTGGATTCTTTAAGTTCGG [EGFR aptamer SEQ ID NO: 7]”, the binding result (N = BndU [n positions 4,5,7,9,14,19,20,22,23,27,28,30,31,32,36,37 = modified dU], same SELEX pool as SEQ ID NO: 4) was “binds”.
